Measured values taken from paper PMC3387196.
These are yes or no findings as the source states them, for the method shown. Binding seen in cells or lysates may run through a third protein. Some results given as binding are weak or reduced against the parent protein; the word gives no strength. For part of these data: Where a sequence is shown, tags or fusion partners need not be part of it. Values belong to the substance of their own block, whether it stands above or below them.

By UniProt entry, the sequences of proteins in these tests, tags left out. Where a name states a change or a piece, a line headed by the entry shows the natural chain unless it says otherwise. Residues count along the entry.
UniProt P46935: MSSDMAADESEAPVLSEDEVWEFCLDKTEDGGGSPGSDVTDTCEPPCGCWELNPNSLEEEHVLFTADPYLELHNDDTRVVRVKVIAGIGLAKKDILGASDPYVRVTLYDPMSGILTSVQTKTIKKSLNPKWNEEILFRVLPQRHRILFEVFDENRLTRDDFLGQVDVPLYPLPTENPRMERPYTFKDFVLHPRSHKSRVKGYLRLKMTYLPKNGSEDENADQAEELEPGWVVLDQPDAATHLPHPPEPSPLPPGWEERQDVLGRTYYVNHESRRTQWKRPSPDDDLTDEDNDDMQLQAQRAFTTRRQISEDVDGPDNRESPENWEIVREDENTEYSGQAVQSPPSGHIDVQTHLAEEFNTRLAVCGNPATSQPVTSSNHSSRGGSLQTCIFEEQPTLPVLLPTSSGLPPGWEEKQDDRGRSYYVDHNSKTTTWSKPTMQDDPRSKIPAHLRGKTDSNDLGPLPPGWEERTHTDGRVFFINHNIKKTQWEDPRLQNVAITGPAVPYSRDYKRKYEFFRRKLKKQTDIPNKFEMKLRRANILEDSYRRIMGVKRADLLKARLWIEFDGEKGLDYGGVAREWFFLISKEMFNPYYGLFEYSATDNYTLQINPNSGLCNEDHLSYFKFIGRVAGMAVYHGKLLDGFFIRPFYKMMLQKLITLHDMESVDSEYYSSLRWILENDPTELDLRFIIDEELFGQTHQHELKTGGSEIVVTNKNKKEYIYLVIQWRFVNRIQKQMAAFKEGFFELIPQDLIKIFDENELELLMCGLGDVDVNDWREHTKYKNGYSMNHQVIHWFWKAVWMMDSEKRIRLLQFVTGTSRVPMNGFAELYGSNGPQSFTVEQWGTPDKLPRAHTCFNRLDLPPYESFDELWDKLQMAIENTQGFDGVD
GST-Nedd4 WW (250-549): residues 250-549 of P46935

Key:
[1] = molecular target: FLAG-Kif26b (full-length), expressed in HEK293 cells (mouse) (UniProt Q7TNC6); test: co-IP; HEK293 cells co-transfected with FLAG-Kif26b constructs and Myc-Nedd4; anti-FLAG beads, 2 h at 4°C; lysis buffer 50 mM Tris-HCl pH 7.5, 100 mM NaCl, 10% glycerol, 5 mM EDTA, 0.5% Triton X-100; immunoblot; in Figure 3A cells treated 6 h with DMSO or Roscovitine (20 µM)
[2] = molecular target: Kif26b, endogenous in E14.5 mouse kidney (mouse (endogenous in E14.5 kidney)) (UniProt Q7TNC6); test: co-IP; endogenous proteins; E14.5 kidney lysates, immunoprecipitation with anti-Kif26b antibody, immunoblot; kidneys cultured 8 h with or without roscovitine (20 µM) in Figure 7A; rabbit IgG as control
[3] = molecular target: GST-Nedd4 WW (250-549) (mouse) (UniProt P46935); test: pull-down; lysates of HEK293 cells expressing FLAG-Kif26b incubated with purified GST or GST-tagged Nedd4 deletions; glutathione bead precipitates immunoblotted; only the target purified
[4] = molecular target: FLAG-Kif26b T1859A (mouse) (UniProt Q7TNC6); test: co-IP; HEK293 cells co-transfected with FLAG-Kif26b constructs and Myc-Nedd4; anti-FLAG beads, 2 h at 4°C; lysis buffer 50 mM Tris-HCl pH 7.5, 100 mM NaCl, 10% glycerol, 5 mM EDTA, 0.5% Triton X-100; immunoblot; in Figure 3A cells treated 6 h with DMSO or Roscovitine (20 µM)
[5] = molecular target: FLAG-Kif26b T1859A/S1962A (mouse) (UniProt Q7TNC6); test: as above
[6] = molecular target: FLAG-Kif26b S1962A (mouse) (UniProt Q7TNC6); test: as above
[7] = molecular target: T1, FLAG-Kif26b ΔMotor (799-2112) (mouse) (UniProt Q7TNC6); test: as above
T1 sequence: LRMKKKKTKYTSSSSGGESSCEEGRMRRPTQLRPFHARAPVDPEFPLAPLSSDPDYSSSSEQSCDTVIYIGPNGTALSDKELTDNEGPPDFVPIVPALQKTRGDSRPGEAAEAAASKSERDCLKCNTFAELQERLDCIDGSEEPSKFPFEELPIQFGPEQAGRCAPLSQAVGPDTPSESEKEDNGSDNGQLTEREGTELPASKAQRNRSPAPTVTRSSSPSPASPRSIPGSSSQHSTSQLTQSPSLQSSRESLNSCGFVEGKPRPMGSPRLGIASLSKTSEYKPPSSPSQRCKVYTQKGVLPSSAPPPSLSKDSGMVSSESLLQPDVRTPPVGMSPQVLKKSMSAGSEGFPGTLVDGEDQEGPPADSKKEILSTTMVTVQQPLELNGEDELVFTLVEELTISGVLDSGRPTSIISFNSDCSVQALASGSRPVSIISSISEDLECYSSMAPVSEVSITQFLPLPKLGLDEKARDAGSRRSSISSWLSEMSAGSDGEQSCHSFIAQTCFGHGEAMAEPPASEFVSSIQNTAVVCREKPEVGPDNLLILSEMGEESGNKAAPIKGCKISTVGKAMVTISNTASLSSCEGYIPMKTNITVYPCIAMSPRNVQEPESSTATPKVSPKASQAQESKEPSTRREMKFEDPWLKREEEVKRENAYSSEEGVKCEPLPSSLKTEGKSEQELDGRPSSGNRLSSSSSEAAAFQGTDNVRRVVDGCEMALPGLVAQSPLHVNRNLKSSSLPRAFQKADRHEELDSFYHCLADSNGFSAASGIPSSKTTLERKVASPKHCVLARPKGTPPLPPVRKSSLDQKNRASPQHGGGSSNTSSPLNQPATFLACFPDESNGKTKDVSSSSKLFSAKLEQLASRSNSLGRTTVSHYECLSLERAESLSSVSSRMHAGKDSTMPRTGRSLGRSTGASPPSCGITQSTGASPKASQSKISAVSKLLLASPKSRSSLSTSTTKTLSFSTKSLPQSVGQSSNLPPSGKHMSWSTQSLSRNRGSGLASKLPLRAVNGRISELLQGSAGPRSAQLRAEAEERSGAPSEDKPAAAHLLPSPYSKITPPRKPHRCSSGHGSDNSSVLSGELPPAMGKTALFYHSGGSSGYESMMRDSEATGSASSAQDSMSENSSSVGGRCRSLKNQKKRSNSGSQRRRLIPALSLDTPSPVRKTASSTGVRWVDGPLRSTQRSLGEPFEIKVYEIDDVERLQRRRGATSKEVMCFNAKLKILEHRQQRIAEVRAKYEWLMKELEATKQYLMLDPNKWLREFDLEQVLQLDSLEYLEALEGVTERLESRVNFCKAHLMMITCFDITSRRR

Substance: CDK5, endogenous in E14.5 mouse kidney (from UniProt P49615 1-292) (enzyme)
binding [2]: binds

Substance: Myc-Nedd4 wild type (full-length mouse Nedd4) (from UniProt P46935 1-887) (enzyme)
binding [4]: binds | binding [5]: binds | binding [1]: binds | binding [6]: binds | binding [7]: binds

Next, values leading:

binding [1]: binds
Substance: Myc-Nedd4 CS (catalytically inactive C854S mutant) (from UniProt P46935 1-887) (enzyme)

binding [3]: binds
Substance: FLAG-Kif26b (full-length), expressed in HEK293 cells (from UniProt Q7TNC6 1-2112)

binding [2]: binds
Substance: Nedd4, endogenous in mouse kidney (from UniProt P46935 1-887) (enzyme)
